The target of experiment [1] is KorB (wild type), C-terminally His-tagged (plasmid RK2) (UniProt P07674). As to the kind of experiment: ITC.
Experiment [2] addresses KorB F249A, C-terminally His-tagged (plasmid RK2) (UniProt P07674). As to the kind of experiment: ITC. (In ITC the heat of successive injections is recorded.)

Protein sequences, listed by entry. Tags and fused reporters are not part of them. Lines headed by an entry give the natural chain unless they say otherwise; changes in a name come on top.
UniProt P07674: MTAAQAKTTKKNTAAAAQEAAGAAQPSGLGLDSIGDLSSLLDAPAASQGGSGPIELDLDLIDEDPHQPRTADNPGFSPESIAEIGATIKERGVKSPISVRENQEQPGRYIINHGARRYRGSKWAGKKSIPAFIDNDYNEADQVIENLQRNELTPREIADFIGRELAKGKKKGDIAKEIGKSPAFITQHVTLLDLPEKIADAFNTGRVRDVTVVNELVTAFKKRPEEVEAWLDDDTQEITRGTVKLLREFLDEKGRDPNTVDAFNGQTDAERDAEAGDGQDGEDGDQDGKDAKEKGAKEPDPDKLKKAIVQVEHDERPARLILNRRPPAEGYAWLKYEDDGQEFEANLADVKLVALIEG
UniProt P03052: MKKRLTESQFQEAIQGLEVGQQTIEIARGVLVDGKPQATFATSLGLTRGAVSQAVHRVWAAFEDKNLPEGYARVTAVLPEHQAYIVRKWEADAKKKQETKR

The source of these data is article doi:10.1101/2024.02.16.579611.

Results are given in words; binding and its absence hold for the method and conditions named.

Consider “KorA Y84A, C-terminally His-tagged (from UniProt P03052)”, for which the binding result in experiment [1] is “no binding”. On to “KorA (wild type), C-terminally His-tagged (from UniProt P03052)”, for which the binding entry in experiment [2] was “no binding”.
